Binding data for 1 molecule are collected here from paper doi:10.1101/2022.10.06.511230.

In this assay the target is T1, Syn6803 RNAP β subunit (Synechocystis sp. PCC 6803) (UniProt P77965).
T1 sequence: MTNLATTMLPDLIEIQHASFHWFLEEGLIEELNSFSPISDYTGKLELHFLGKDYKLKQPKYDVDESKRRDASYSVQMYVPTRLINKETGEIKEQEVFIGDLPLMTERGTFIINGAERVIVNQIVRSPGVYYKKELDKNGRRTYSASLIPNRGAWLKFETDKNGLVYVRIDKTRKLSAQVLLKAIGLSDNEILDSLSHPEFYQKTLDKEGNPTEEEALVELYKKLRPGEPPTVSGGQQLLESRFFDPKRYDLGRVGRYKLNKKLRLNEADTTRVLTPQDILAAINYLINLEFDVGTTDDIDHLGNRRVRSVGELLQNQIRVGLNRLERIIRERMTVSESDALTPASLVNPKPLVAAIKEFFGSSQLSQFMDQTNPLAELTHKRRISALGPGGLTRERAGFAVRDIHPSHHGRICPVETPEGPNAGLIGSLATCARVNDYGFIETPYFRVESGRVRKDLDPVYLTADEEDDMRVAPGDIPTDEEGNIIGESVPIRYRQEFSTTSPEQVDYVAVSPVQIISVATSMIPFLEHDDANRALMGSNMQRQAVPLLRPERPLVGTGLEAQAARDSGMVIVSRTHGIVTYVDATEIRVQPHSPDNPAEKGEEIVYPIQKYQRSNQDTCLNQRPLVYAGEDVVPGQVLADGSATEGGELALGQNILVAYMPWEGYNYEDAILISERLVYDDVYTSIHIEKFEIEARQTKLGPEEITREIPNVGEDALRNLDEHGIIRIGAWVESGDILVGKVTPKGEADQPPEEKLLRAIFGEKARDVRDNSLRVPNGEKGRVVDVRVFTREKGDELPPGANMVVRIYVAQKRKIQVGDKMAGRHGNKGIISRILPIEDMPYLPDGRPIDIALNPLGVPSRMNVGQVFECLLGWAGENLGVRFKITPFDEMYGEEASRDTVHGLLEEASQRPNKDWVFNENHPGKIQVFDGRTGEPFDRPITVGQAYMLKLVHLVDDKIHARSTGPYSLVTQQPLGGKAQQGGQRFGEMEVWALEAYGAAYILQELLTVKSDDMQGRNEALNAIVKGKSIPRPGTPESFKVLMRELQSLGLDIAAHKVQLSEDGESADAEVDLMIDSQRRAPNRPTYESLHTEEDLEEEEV
Kind of assay: cryo-EM structure.

No constants are given. Whether binding was seen depends on the method and setting. Some entries that bind do so weakly or less than the wild type.

B1: Syn6803 RNAP β′2 subunit (holds the SI3 insertion of the Trigger Loop) (protein, UniProt P73334 1-1317)
chain: MTFYNYTIDKGRLKKLIALAYRRYGSARCSQLADELKELGFRFATKAGVSISVDDLTIPPEKKQMLEAAEKEIRTTEERYARGEITEVERFQKVIDTWNGTSEELKDQVVVNFRKTDPLNSVYMMAFSGARGNMSQVRQLVGMRGLMADPQGEIIDLPIKTNFREGLTVTEYVISSYGARKGLVDTALRTADSGYLTRRLVDVSQDVIVREQDCGTERSLRVTAMTDGDQVKISLADRLFGRLLAKDVVGPDGEIIAKRNDEIDEALANRIAAVTDEVYVRSPLTCEAARSVCQNCYGWSLAHGHKVDLGEAVGIIAAQSIGEPGTQLTMRTFHTGGVFTGEVARQEKAPEDGTVKWGKGLSTRKVRTRHGEDAEQVEIAGDLIWKGEGKKAATQTYSLTPGSLLFVQDGQTVTAGQLMTEISLSKTQRSTERATKDVAGDLAGEVLFDRLVPEEKTDRQGNTTRIAQRGGLVWILSGEVYNLPPGAEPVVKNDEQVEVGSIMAETKLVTNDGGVVRLVSNREIEIITASVLLDQAQVKLESSGGREQYVIYTADKQRFLLKAAPGTKVQNHSIVAELIDDRYRTTTGGMIRYAGVEVAKGGRKQGYEVTKGGTLLWIPEETHEINKDISLLIVEDGQYVEAGTEVVKDIFCQSSGIVEVVQKNDILREIIIKPGDFYQDVDPGSVKIESGQLLQPGQDVFPGVTVSTLSQAEWIESPEGNGLLLRPVEEYKVFDEPAAPSQGSQNEEGGRQIELRSVQRLFYKDGDRVKSVEGAPLLSTQLVLEIYGSGNEGISHLSADIELQDDEEEDCQRLQLVILESLVLRRDQESDPLGGASKTRLLVQDGDQIPPGAVVARTEIQCKEAGTVRGIKEGQESIRRVLLERAADRLVVDLPSAPEVKPGQLLVAGQELVPGVKLEESGKVLEINGKGDNYQLVLRRARPYRVSPGAVLHIEDGDLVQRGDNLVLLVFERAKTGDIVQGLPRIEELLEARKPKEACVLARAPGVCQVEYLEDESVDIKVVEDDGTVSEYPLLPGQNAMVTDGQRIDVGHALTDGYNNPHEILDVFFSYYVDKDGCYQAALRGLQAAQKFLVNEVQTVYQSQGVDISDKHIEVIVRQMTAKVRIDDGGDTTMLPGELVELRQVEQVNEAMGITGSAPARYTPVLLGITKASLNTDSFISAASFQETTRVLTEAAIEGKSDWLRGLKENVIIGRLIPAGTGFSSHEEVLGLIETQDDIQGYMIEPIELPTTKKKASATKVKTKKVEADDDLLDDTRARAYAGTQLSQDDEEFEETYDTDEDDFDMDDDDDFGDDED
Consider B1, for which the binding entry is given as “binds”.
